Data reported in patent publication US9828411 (dated 2017).

Assay: peptide synthesis
Details: purification step, diacetate

Substance: caspofungin
- final HPLC purity (Rel. Area): 98.43%
- step yield (based on yield and input before column step): 94.7%
- step yield (overall over both runs): 96.2%
